Reference: patent US6348309B1, “Process for inactivating viruses in blood and blood products” (priority 1989, dated 2002)

Assay: Batch removal of MB from fresh plasma by adsorbing agents: extinction and protein (Example 14)
Conditions: fresh plasma + MB 10 μM, no adsorbing agent

CN(C)c1ccc2nc3ccc(=[N+](C)C)cc-3sc2c1 [MB, methylene blue]
E (660 nm): 1.450
Protein: 65.6 mg/mL
